Measurements as given in patent US20050282190A1.
No constants are given. Whether binding was seen depends on the method and setting. Some entries that bind do so weakly or less than the wild type.

Biological target: T1, Recombinant yeast TBP (yeast) (UniProt P13393)
T1 sequence (looked up): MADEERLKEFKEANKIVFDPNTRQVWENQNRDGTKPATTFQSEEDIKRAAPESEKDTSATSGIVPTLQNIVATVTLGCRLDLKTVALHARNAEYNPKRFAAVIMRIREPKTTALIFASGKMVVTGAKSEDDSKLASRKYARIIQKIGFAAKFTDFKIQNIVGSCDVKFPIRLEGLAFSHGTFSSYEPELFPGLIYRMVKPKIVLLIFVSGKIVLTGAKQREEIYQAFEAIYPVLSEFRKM
Assay: EMSA competition against labeled RNA aptamer AptTBP-101 on the TBP-TATA complex (25 nM TBP, 50 nM TATA-DNA, 200 nM recombinant protein)

B1: Recombinant yeast TFIIA (protein)
chain 1: MSNAEASRVYEIIVESVVNEVREDFENAGIDEQTLQDLKNIWQKKLTETKVTTFSWDNQFNEGNINGVQNDLNFNLATPGVNSSEFNIKEENTGNEGLILPNINSNNNIPHSGETNINTNTVEATNNSGATLNTNTSGNTNADVTSQPKIEVKPEIELTINNANITTVENIDDESEKKDDEEKEEDVEKTRKEKEQIEQVKLQAKKEKRSALLDTDEVGSELDDSDDDYLISEGEEDGPDENLMLCLYDKVTRTKARWKCSLKDGVVTINRNDYTFQKAQVEAEWV
chain 2: MAVPGYYELYRRSTIGNSLVDALDTLISDGRIEASLAMRVLETFDKVVAETLKDNTQSKLTVKGNLDTYGFCDDVWTFIVKNCQVTVEDSHRDASQNGSGDSQSVISVDKLRIVACNSKKSE
binding: binds
